Results taken from PubChem BioAssay AID624291 (National Center for Advancing Translational Sciences (NCATS), 2012).
Screen size: about 350,000 compounds; about 220 (0.063%) were called active. Inconclusive results, whose numbers are uncertain, are shown with a selection of clear calls. Calls follow the shape of the dose curve; as a rule, active = well fitted activation curve with a large enough effect; inconclusive = small, poorly fitted or top-dose-only effect; inactive = no such curve, though single readings can be large or run the other way. Potencies beside an inconclusive call are fits to weak or partial responses and may not hold up.

assay: qHTS for Activators of Integrin-Mediated Alleviation for Muscular Dystrophy; conditions: alpha7betagal myoblasts, beta-gal FDG fluorescence, 48 h; activation: at 38.3 µM (top of the series); also: nearly all actives have a fitted effect of over 60% in size;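 as to activation: 100% = response of the positive control SU9516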
Outline: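 alpha7betagal+/- myoblasts (passage 13, 250/well) treated 48 h at 37C with compounds at 1:260 dilution of DMSO stock. Lysed, then beta-galactosidase activity read as FDG fluorescence (ex 480/em 540) after 30 min, with pre-read for autofluorescence.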
Potency is read from the fitted curve at half-maximal effect.

Potency, inconclusive:
CCC(=O)Nc1ccc(Br)c(Cl)c1 2.82 µM [activator, partial curve, poor fit]
CCOc1ccc(CCNC(=O)C2CCCN2C(=O)OCc2ccccc2)cc1OCC (centres undefined) 3.55 µM [activator, single point]
Cn1c2c(c(O)c(-c3ccccc3)c1=O)C(=O)CC(C)(C)C2 5.01 µM [activator, single point]
O=c1[nH]c2ccc(S(=O)(=O)Nc3ccc(Cl)cc3)cc2o1 1.78 µM [activator, partial curve, poor fit]
O=C(O)c1ccccc1N1C(=O)c2cccc3cccc(c23)C1=O 5.01 µM [activator, single point]
CCCC(C(=O)Nc1ccc2c(C)cc(=O)oc2c1)c1ccccc1 (centres undefined) 3.55 µM [activator, single point]
COCC(=O)N(C)c1nnc(-c2cnc(C)cn2)s1 15.8 µM [activator, single point]
Clc1ccc(-c2nc(-c3cc4cc(Cl)ccc4o3)cs2)cc1 5.01 µM [activator, single point]
CNc1ccc(C(=O)OCC(=O)Nc2ccnn2C(C)C)cc1[N+](=O)[O-] 2.82 µM [activator, partial curve, poor fit]
COc1cc(OC)c(OC)cc1CNCc1ccco1 5.01 µM [activator, single point]
Cc1cccc(C(=O)NC2CCN(CC(=O)Nc3ccc4c(c3)OCO4)CC2)c1 2.82 µM [activator, single point]
Cc1cccc2c1N1C(=O)c3c(C(=O)O)cccc3C1CC2C (centres undefined) 3.98 µM [activator, full curve, poor fit]
COC(=O)c1ccc(Nc2ncnc3sccc23)cc1 8.91 µM [activator, partial curve, poor fit]
CC(=O)c1ccc([N+](=O)[O-])c(CS(=O)(=O)c2ccccc2)c1 22.4 µM [activator, partial curve, poor fit]

Part of the list above in order of length of the SMILES, falling:
Potency, inconclusive:
CNc1ccc(C(=O)OCC(=O)Nc2ccnn2C(C)C)cc1[N+](=O)[O-] 2.82 µM [activator, partial curve, poor fit]
O=c1[nH]c2ccc(S(=O)(=O)Nc3ccc(Cl)cc3)cc2o1 1.78 µM [activator, partial curve, poor fit]
CCC(=O)Nc1ccc(Br)c(Cl)c1 2.82 µM [activator, partial curve, poor fit]

Following part:

activation, inactive:
C=CCN(CC=C)C(=O)c1cccc(OC2CCN(S(=O)(=O)N(C)C)CC2)c1 -8.17%
CNC(=O)N(C1=NCCCCC1)c1ccc(Br)cc1 -18.9%
Nc1nnc(SCC(=O)NNC(=O)c2ccc(Cl)cc2)s1 -12.3%
O=C(N/N=C/c1ccc(OC(F)F)cc1OC(F)F)c1ccc(Br)cc1 1.96%

activation, inconclusive:
O=[N+]([O-])c1ccc(-c2nc(C(Cl)Cl)c3ccccc3n2)cc1 -61.4% [activator]
